Measured values taken from the supplement of paper PMC12823440, “Inhibitors supercharge kinase turnover through native proteolytic circuits” (Nature, 2025).
Counter-ions that a name gives are not always drawn. The list shows a part of the results. The calls rarely recur for the same compound in another form.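 In K562 cells expressing nanoluciferase-fused kinases, luminescence was recorded at 4 h intervals between 2 and 18 h, normalized as percent of control with DMSO at 100% and a positive control at 0%. A significant (2 sigma) signal drop marks a time point as decreased. The authors' rule for a hit is not shown and takes in more than the number of time points.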

Chains of the proteins cited; added tags and fusions are not shown. Lines headed by an entry give the natural chain unless they say otherwise; changes in a name come on top.
UniProt P07947, whole entry, looked up: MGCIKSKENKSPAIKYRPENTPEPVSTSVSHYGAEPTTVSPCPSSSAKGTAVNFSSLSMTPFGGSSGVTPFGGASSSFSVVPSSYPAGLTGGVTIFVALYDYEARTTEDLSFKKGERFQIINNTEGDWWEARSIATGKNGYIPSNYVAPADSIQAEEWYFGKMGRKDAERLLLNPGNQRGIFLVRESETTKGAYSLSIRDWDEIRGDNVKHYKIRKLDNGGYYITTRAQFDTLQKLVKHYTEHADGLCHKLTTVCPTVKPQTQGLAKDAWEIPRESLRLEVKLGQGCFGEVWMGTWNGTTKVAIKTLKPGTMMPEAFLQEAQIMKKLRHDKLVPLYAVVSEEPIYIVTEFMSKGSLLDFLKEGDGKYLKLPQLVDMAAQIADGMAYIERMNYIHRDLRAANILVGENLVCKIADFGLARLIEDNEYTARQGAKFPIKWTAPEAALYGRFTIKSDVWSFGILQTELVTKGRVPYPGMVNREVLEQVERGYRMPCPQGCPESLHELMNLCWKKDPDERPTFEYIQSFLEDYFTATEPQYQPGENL
UniProt P43403: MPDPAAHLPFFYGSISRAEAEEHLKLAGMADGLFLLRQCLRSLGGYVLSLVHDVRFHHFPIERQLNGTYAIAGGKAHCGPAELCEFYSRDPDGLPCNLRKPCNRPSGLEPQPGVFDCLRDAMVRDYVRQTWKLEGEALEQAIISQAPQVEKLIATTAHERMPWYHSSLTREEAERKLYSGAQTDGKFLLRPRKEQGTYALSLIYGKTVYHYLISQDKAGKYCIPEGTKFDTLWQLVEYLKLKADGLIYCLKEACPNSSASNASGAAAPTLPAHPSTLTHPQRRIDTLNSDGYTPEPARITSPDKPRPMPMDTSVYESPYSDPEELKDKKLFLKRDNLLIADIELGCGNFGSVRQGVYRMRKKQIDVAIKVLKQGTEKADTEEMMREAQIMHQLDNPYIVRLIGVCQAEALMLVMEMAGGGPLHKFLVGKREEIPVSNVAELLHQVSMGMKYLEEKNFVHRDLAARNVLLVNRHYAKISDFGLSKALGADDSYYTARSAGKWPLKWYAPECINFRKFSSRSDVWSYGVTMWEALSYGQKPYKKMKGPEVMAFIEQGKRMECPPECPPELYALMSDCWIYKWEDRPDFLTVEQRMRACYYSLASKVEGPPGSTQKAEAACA
UniProt P11802: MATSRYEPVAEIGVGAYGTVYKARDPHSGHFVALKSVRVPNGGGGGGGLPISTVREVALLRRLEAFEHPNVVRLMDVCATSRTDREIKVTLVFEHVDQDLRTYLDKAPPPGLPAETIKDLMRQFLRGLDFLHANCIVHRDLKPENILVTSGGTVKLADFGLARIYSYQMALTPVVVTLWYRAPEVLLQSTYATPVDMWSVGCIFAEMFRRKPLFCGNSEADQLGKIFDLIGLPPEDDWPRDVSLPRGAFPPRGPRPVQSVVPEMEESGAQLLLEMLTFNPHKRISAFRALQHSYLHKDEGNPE
UniProt P50613: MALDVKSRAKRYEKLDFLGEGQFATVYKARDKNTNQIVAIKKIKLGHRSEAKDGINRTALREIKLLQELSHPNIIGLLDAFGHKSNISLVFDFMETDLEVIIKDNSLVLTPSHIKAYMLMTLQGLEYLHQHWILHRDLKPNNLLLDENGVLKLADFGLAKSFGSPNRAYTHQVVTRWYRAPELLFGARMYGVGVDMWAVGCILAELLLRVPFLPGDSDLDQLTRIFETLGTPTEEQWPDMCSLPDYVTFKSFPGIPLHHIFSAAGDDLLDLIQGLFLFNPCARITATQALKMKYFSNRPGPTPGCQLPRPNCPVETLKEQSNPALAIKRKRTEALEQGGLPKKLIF
UniProt P50750, whole entry: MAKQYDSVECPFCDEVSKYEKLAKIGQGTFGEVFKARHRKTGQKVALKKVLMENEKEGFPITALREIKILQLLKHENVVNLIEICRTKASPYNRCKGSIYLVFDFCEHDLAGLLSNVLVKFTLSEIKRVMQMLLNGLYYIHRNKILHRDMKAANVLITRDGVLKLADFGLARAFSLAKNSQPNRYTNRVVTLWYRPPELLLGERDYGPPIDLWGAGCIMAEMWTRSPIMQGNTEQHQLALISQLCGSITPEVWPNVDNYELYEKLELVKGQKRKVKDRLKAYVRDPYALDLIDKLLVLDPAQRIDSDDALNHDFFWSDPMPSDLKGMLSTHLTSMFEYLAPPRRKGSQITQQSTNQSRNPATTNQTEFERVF

Legend:
Conditions in all cases: K562; 2-18 h
YES1 = YES1 (UniProt P07947); test: number of time points (of 5) at which kinase-Nluc abundance scored as decreased, DMSO-normalised (count); higher = more persistent destabilization
ZAK = ZAK (UniProt Q9NYL2); test: as above
ZAP70 = ZAP70 (UniProt P43403); test: as above
CDK4 = CDK4 (UniProt P11802); test: number of time points (of 4; 2 h point missing) at which kinase-Nluc abundance scored as decreased, DMSO-normalised (count); higher = more persistent destabilization
CDK7 = CDK7 (UniProt P50613); test: as above
CDK9 = CDK9 (UniProt P50750); test: as above

SMILES | number of time points (YES1) | number of time points (ZAK) | number of time points (ZAP70) | number of time points (CDK4) | number of time points (CDK7) | number of time points (CDK9)
Cc1c(CN2CCN(C(=O)[C@H](C)O)CC2)sc2c(N3CCOCC3)nc(-c3cnc(N)nc3)nc12 [Apitolisib] (10 µM) | 0 | 0 | 0 | 0 | 4 | 3
COc1ccc(Cl)cc1NC(=O)Nc1cc(C)nc2ccccc12 (2.5 µM) | 0 | 0 | 0 | 0 | 0 | 0
COc1ccc(C(=C2C(=O)Nc3ccccc32)c2ccc(OC)cc2)cc1 (10 µM) | 0 | 0 | 0 | 0 | 0 | 0
Cc1ccc(-c2c(C(=O)CCl)n(CCCO)c3ncnc(N)c23)cc1 (10 µM) | 4 | 0 | 0 | 0 | 0 | 0
CC(C)c1cnc(-c2cc(Cl)ccc2F)cc1Nc1ccncc1C(=O)NC(CO)CO (2.5 µM) | 0 | 0 | 0 | 0 | 0 | 0
NC1(Cc2ccc(Cl)cc2)CCN(c2ncnc3[nH]ccc23)CC1 (10 µM) | 0 | 0 | 0 | 0 | 0 | 0
CC(C)CC1(O)CCN(C(=O)c2ccc(NS(=O)(=O)c3cccc4nccnc34)cc2)CC1 (10 µM) | 0 | 0 | 0 | 0 | 0 | 0
CN(CC(=O)N(Cc1ccc(C2CCCCC2)cc1)c1ccc(C(=O)O)cc1)S(=O)(=O)c1c(F)c(F)c(F)c(F)c1F (2.5 µM) | 0 | 0 | 0 | 0 | 0 | 0
CC(C)CN(CC(=O)N1CCN(CC(OCc2ccc3ccccc3c2)c2ccc(Cl)cc2Cl)CC1)CC(C)C (stereo not drawn) [LYN-1604 (dihydrochloride)] (2.5 µM) | 0 | 0 | 0 | 0 | 0 | 0
Fc1ccc(-c2nc(-c3ccccc3F)[nH]c2-c2ccncc2)cc1 (2.5 µM) | 0 | 0 | 0 | 0 | 0 | 0
O=C(Nc1nc2ccccc2[nH]1)c1cccc(-n2cccc2)c1 (10 µM) | 0 | 0 | 0 | 0 | 0 | 0
Cc1noc(C)c1-c1ccc(-c2cc(C(N)=O)c(NC(N)=O)s2)c(O[C@H]2CCNC2)c1 (10 µM) | 0 | 0 | 0 | 0 | 0 | 0
Cc1cc(Nc2cc3ncccc3c(N[C@@H]3C[C@H]4CC[C@@H](C3)N4CCC#N)n2)n[nH]1 [Izencitinib] (10 µM) | 0 | 0 | 0 | 0 | 0 | 0
N#Cc1c(-c2ccccc2)cc(-c2cc(Br)ccc2O)[nH]c1=O (10 µM) | 0 | 0 | 0 | 0 | 0 | 0
O=c1oc2cc(O)ccc2c2ccccc12 [Urolithin B] (10 µM) | 0 | 0 | 0 | 0 | 0 | 0
CCN(CC)S(=O)(=O)c1ccc(OC)c(N2CCN(C(=O)c3ccc(F)cc3C(F)(F)F)CC2)c1 (10 µM) | 0 | 0 | 0 | 0 | 0 | 0
COc1ccc(-c2ccc3c(N4CCOC[C@@H]4C)nc(N4CCOC[C@@H]4C)nc3n2)cc1CO (2.5 µM) | 2 | 2 | 0 | 0 | 3 | 3

Reprinted at random: 2 entries already listed, in no set order.
SMILES | number of time points (YES1) | number of time points (ZAK) | number of time points (ZAP70) | number of time points (CDK4) | number of time points (CDK7) | number of time points (CDK9)
CC(C)CC1(O)CCN(C(=O)c2ccc(NS(=O)(=O)c3cccc4nccnc34)cc2)CC1 (10 µM) | 0 | 0 | 0 | 0 | 0 | 0
CCN(CC)S(=O)(=O)c1ccc(OC)c(N2CCN(C(=O)c3ccc(F)cc3C(F)(F)F)CC2)c1 (10 µM) | 0 | 0 | 0 | 0 | 0 | 0

Further entries follow:

SMILES | number of time points (YES1) | number of time points (ZAK) | number of time points (ZAP70) | number of time points (CDK4) | number of time points (CDK7) | number of time points (CDK9)
Cn1cc(-c2ccc(CNc3cc(-c4cnc5cc(OCCCN6CCCC6)ccn45)ncn3)cc2)cn1 (10 µM) | 0 | 0 | 0 | 0 | 0 | 0
CC/C=C\C/C=C\C/C=C\CCCCCCCC(=O)O [α-Linolenic acid] (10 µM) | 0 | 0 | 0 | 0 | 0 | 0
Nc1cc(Nc2ccc(S(N)(=O)=O)cc2)ncn1 (10 µM) | 0 | 0 | 0 | 0 | 0 | 0
CC(C)CN[C@H]1CS(=O)(=O)C[C@@H]1S(=O)(=O)c1ccc(Cl)cc1 (10 µM) | 0 | 0 | 0 | 0 | 0 | 0
N#Cc1cccc(-c2c[nH]c3ncnc(N4CCOCC4)c23)c1 (10 µM) | 0 | 0 | 0 | 0 | 0 | 0
COc1ccc(C2CC(c3ccccc3)=NN2c2ccc(S(N)(=O)=O)cc2)cc1 (stereo not drawn) (10 µM) | 0 | 0 | 0 | 0 | 0 | 0
COc1ccc([C@H]2c3[nH]c4ccc(Cl)cc4c3CCN2C(=O)Oc2ccc(Cl)cc2)cc1 (2.5 µM) | 0 | 0 | 0 | 0 | 1 | 0
CC(C)=CC(=O)CCC(=O)N1CCN(Cc2cc3nc(-c4cccc5[nH]ncc45)nc(N4CCOCC4)c3s2)CC1 (10 µM) | 0 | 0 | 0 | 0 | 0 | 4
Cn1cc(Nc2nccc(N3C[C@H]4CC[C@@H](C3)N4C(=O)[C@@H]3CC3(F)F)n2)cn1 (10 µM) | 0 | 0 | 0 | 0 | 0 | 0
CNc1nc(Nc2cnn(C3CCN(C4COC4)CC3F)c2Cl)ncc1C(F)(F)F (stereo not drawn) (10 µM) | 0 | 0 | 0 | 0 | 0 | 0
CC(C)(NS(=O)(=O)c1ccc2c(Cl)cnc(N=C(N)N)c2c1)C(=O)O (10 µM) | 0 | 0 | 0 | 0 | 0 | 0
CO[C@H]1C[C@@H]2CC[C@@H](C)[C@@](O)(O2)C(=O)C(=O)N2CCCC[C@H]2C(=O)O[C@H]([C@H](C)C[C@@H]2CC[C@@H](O)[C@H](OC)C2)CC(=O)[C@H](C)/C=C(\C)[C@@H](O)[C@@H](OC)C(=O)[C@H](C)C[C@H](C)/C=C/C=C/C=C/1C [Rapamycin] (10 µM) | 0 | 0 | 0 | 0 | 0 | 0
C=C(C)C(=O)Nc1cccc(-c2ncnc3[nH]cc(C(=O)OCC)c23)c1 (10 µM) | 0 | 0 | 0 | 0 | 0 | 0
O=C1Nc2nc(-c3c(O)cccc3OCC3CC3)cc([C@@H]3CCCNC3)c2CO1 [Bay 65-1942 (hydrochloride)] (10 µM) | 0 | 0 | 0 | 0 | 0 | 0
OCCNC1CCCc2c1[nH]c1ccc(-c3ccccc3)cc21 (stereo not drawn) (2.5 µM) | 0 | 0 | 0 | 0 | 2 | 0
Cc1ccc(Oc2nc3cc(-c4ccc5c(ccn5C)c4)c(Cl)cc3[nH]2)cc1C(=O)O (10 µM) | 0 | 0 | 0 | 0 | 0 | 0
